For two molecules, binding results are on record in article PMC4566084.

Sequences of proteins named here, by UniProt entry; tags and fusion partners are left off. A change or cut given only in a name is not applied to a line headed by its entry.
UniProt Q15797: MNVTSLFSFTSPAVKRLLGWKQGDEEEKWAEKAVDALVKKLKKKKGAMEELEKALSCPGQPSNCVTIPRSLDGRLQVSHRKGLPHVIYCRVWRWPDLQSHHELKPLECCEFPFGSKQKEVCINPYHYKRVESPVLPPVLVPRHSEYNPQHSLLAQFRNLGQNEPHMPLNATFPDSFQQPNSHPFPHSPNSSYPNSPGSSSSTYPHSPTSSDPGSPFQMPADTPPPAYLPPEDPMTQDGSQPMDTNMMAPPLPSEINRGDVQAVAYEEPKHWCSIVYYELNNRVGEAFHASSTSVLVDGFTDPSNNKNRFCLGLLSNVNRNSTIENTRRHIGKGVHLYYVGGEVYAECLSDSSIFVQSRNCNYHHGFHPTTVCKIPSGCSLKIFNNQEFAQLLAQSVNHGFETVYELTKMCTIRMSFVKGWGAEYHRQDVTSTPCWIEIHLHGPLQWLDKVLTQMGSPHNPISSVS
UniProt Q7Z3T8: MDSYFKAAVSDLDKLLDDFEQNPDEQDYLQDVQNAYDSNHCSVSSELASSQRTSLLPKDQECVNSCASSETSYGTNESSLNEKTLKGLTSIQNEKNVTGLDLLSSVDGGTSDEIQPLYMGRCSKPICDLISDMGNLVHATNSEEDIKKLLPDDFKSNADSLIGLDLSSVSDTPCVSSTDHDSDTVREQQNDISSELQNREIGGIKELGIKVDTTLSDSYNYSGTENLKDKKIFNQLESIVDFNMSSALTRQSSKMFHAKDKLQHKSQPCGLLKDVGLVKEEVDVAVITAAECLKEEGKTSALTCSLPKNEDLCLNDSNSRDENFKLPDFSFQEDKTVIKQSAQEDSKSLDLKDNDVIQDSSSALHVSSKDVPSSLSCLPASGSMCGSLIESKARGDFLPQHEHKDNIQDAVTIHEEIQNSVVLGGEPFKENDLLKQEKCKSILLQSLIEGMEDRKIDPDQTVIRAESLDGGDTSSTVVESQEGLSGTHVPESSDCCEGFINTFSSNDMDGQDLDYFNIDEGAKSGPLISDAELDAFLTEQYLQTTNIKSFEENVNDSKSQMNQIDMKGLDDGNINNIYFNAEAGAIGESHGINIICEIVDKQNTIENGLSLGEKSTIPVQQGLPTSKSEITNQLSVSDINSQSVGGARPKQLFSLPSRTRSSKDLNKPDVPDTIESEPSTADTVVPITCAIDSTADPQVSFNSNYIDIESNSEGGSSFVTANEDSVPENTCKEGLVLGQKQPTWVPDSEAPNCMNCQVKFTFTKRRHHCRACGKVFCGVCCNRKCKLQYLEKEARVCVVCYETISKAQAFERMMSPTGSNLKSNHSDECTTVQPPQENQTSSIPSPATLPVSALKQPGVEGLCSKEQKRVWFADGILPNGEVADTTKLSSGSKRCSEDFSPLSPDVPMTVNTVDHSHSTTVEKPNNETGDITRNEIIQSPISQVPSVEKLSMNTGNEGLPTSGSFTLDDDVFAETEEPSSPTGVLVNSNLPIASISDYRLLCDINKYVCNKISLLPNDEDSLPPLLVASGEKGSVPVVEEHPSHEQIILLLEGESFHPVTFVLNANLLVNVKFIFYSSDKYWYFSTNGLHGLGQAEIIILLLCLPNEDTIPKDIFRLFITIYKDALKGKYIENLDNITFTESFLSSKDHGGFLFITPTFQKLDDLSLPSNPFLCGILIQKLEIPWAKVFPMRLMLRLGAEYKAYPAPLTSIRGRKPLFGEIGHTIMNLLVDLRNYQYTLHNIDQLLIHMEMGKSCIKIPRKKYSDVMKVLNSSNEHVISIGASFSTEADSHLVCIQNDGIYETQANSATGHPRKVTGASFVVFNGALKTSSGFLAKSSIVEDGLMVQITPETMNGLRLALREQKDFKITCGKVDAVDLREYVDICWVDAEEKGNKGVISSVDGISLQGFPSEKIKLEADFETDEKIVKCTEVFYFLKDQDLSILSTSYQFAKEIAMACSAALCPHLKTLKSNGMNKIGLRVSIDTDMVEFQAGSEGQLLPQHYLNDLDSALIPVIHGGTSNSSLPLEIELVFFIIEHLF

These are yes or no findings as the source states them, for the method shown. Binding seen in cells or lysates may run through a third protein. Some results given as binding are weak or reduced against the parent protein; the word gives no strength. Sequences can lack the tags named with a protein.

The test has as its target SMAD1 (human (endogenous in HepG2/C3A)) (UniProt Q15797). The test is described as follows: proximity ligation; Duolink PLA in fixed, permeabilised HepG2/C3A cells transfected 48 hr with myc-tagged endofin or myc-tagged SARA; mouse anti-Myc paired with rabbit anti-SMAD1 or rabbit anti-SMAD2/3; proteins in close proximity (<40 nm).

With “myc-tagged endofin (endosome-associated FYVE-domain protein) (from UniProt Q7Z3T8 1-1539)”, the binding entry is listed as “binds”.

B1: myc-tagged SARA (SMAD anchor for receptor activation) (protein, UniProt O95405 1-1425)
chain: MENYFQAEAYNLDKVLDEFEQNEDETVSSTLLDTKWNKILDPPSHRLSFNPTLASVNESAVSNESQPQLKVFSLAHSAPLTTEEEDHCANGQDCNLNPEIATMWIDENAVAEDQLIKRNYSWDDQCSAVEVGEKKCGNLACLPDEKNVLVVAVMHNCDKRTLQNDLQDCNNYNSQSLMDAFSCSLDNENRQTDQFSFSINESTEKDMNSEKQMDPLNRPKTEGRSVNHLCPTSSDSLASVCSPSQLKDDGSIGRDPSMSAITSLTVDSVISSQGTDGCPAVKKQENYIPDEDLTGKISSPRTDLGSPNSFSHMSEGILMKKEPAEESTTEESLRSGLPLLLKPDMPNGSGRNNDCERCSDCLVPNEVRADENEGYEHEETLGTTEFLNMTEHFSESQDMTNWKLTKLNEMNDSQVNEEKEKFLQISQPEDTNGDSGGQCVGLADAGLDLKGTCISESEECDFSTVIDTPAANYLSNGCDSYGMQDPGVSFVPKTLPSKEDSVTEEKEIEESKSECYSNIYEQRGNEATEGSGLLLNSTGDLMKKNYLHNFCSQVPSVLGQSSPKVVASLPSISVPFGGARPKQPSNLKLQIPKPLSDHLQNDFPANSGNNTKNKNDILGKAKLGENSATNVCSPSLGNISNVDTNGEHLESYEAEISTRPCLALAPDSPDNDLRAGQFGISARKPFTTLGEVAPVWVPDSQAPNCMKCEARFTFTKRRHHCRACGKVFCASCCSLKCKLLYMDRKEARVCVICHSVLMNAQAWENMMSASSQSPNPNNPAEYCSTIPPLQQAQASGALSSPPPTVMVPVGVLKHPGAEVAQPREQRRVWFADGILPNGEVADAAKLTMNGTSSAGTLAVSHDPVKPVTTSPLPAETDICLFSGSITQVGSPVGSAMNLIPEDGLPPILISTGVKGDYAVEEKPSQISVMQQLEDGGPDPLVFVLNANLLSMVKIVNYVNRKCWCFTTKGMHAVGQSEIVILLQCLPDEKCLPKDIFNHFVQLYRDALAGNVVSNLGHSFFSQSFLGSKEHGGFLYVTSTYQSLQDLVLPTPPYLFGILIQKWETPWAKVFPIRLMLRLGAEYRLYPCPLFSVRFRKPLFGETGHTIMNLLADFRNYQYTLPVVQGLVVDMEVRKTSIKIPSNRYNEMMKAMNKSNEHVLAGGACFNEKADSHLVCVQNDDGNYQTQAISIHNQPRKVTGASFFVFSGALKSSSGYLAKSSIVEDGVMVQITAENMDSLRQALREMKDFTITCGKADAEEPQEHIHIQWVDDDKNVSKGVVSPIDGKSMETITNVKIFHGSEYKANGKVIRWTEVFFLENDDQHNCLSDPADHSRLTEHVAKAFCLALCPHLKLLKEDGMTKLGLRVTLDSDQVGYQAGSNGQPLPSQYMNDLDSALVPVIHGGACQLSEGPVVMELIFYILENIV
B1: the binding result is “no binding”.
